Results deposited as PubChem BioAssay AID686937 (Drosophila RNAi Screening Center, 2013).

- Test: 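Knock-downs that reduce output of a secreted reporter enzyme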 (primary screen)
- Cells: Drosophila S2 cells expressing secreted horseradish peroxidase
- Reagent: long dsRNA against Drosophila genes
- Time to read-out: about 5.5 days (5 days dsRNA, then 12 h reporter induction)
- Conditions: reporter expression induced after 5 days of dsRNA, read 12 h later; inducer not stated
- Read-out: 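Chemiluminescent measurement of peroxidase in the medium 12 h after reporter induction, following 5 days of dsRNA, given as a z-score per plate; higher means more secretion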
- Scale: z-score: higher = more reporter secreted into medium
The deposit covers about 23,000 reagents; below is an unselected part of those with a known target gene and a result. 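Reduced-secretion tags in replicate 1 do not always agree with the z-scores; no criterion for assigning the tags was given.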 Names joined by + are all predicted targets of the reagent. No sequences are given here. The record does not give: the amount of reagent.

| gene | PubChem SID | z-score, replicate 1 | z-score, replicate 2 | z-score, replicate 3 | z-score, replicate 4 | phenotype, replicate 1 |
| --- | --- | --- | --- | --- | --- | --- |
| Npc1a | SID104183170 | -0.13 | 0.29 | – | – | – |
| PpD3 | SID104196588 | 0.23 | 0.33 | – | – | – |
| CG10477 | SID104189524 | 0.41 | 0.5 | – | – | – |
| CG17780 | SID104195057 | 0.24 | 0.27 | – | – | – |
| TTLL6A | SID104186410 | 0.34 | 0.22 | – | – | – |
| syd | SID104190755 | 0.45 | 0.2 | – | – | – |
| AIMP3 | SID104184292 | 0.42 | 0.35 | – | – | – |
| CG16758 | SID104187776 | 0.07 | 0.44 | – | – | – |
| CG16758 | SID104188284 | 0.2 | 0.51 | – | – | – |
| CG31871 | SID104182359 | 0.18 | 0.01 | – | – | – |
| CG31871 | SID104182363 | 0.19 | 0.24 | – | – | – |
| alpha-Est3 | SID104192407 | 0.21 | 0.29 | – | – | – |
| CG15337 | SID104197812 | 0.28 | 0.62 | – | – | – |
| CG15337 | SID104202139 | -1.8 | -0.52 | – | – | reduced secretion |
| tRNA:Leu-CAA-2-3 | SID104193425 | 0.49 | 0.39 | – | – | – |
| Gem3 | SID104190936 | 0.01 | 0.4 | – | – | – |
| Nepl20 | SID104194670 | 0.12 | 0.27 | – | – | – |
| CG17637 | SID104191532 | 0.34 | 0.27 | – | – | – |
| CG7101 | SID104199815 | 0.18 | 0.1 | – | – | – |
| CG7101 | SID104202204 | -0.34 | -0.28 | – | – | – |
| Or43b | SID104187278 | 0.24 | 0.21 | – | – | – |
| cert | SID104189466 | 0.18 | 0.13 | – | – | – |
| Dlc90F | SID104196441 | 0.26 | 0.38 | – | – | – |
| CG7943 | SID104196143 | 0.3 | 0.09 | – | – | – |
| Argk1 | SID104188751 | 0.81 | 0.21 | 0.35 | 0.17 | – |
| Argk1 | SID104189460 | 0.19 | -0.15 | – | – | – |
| Argk1 | SID104190252 | 0.51 | 0.46 | – | – | – |
| Argk1 | SID104201271 | -6.27 | -0.47 | – | – | reduced secretion |
| Argk1 | SID104202062 | 0.33 | 0.27 | – | – | – |
| CG15812 | SID104188271 | -0.04 | -0.17 | – | – | – |
| l(2)09851 | SID104184650 | 0.05 | 0.22 | – | – | – |
| CG3699 | SID104197963 | 0.5 | 0.44 | – | – | – |
| CG3699 | SID104198434 | 0.5 | 0.51 | – | – | – |
| CG4238 | SID104179882 | -0.2 | -1.7 | – | – | – |
| CG4238 | SID104180436 | 0.31 | 0.2 | – | – | – |
| CG11670 | SID104194134 | 0.43 | 0.64 | – | – | – |
| CG31735 | SID104181310 | 0.46 | 0.33 | – | – | – |
| Pdh | SID104191041 | 0.23 | 0.35 | – | – | – |
| CG41099 | SID104200841 | 0.11 | 0.2 | – | – | – |
| CG41099 | SID104200843 | 0.18 | 0.25 | – | – | – |
| Hel89B | SID104196492 | 0.33 | 0.33 | 0.35 | 0.31 | – |
| Hel89B | SID104201285 | 1.63 | 1.9 | – | – | – |
| CG14932 | SID104182206 | 0.32 | 0.36 | – | – | – |
| sPLA2 | SID104185833 | 0.34 | 0.3 | – | – | – |
| Nap1 | SID104184418 | 0.09 | -0.09 | – | – | – |
| CG3078 | SID104198323 | -0.49 | -0.49 | – | – | – |
| CG15126 | SID104186340 | 0 | 0.13 | – | – | – |
| gkt + CR31953 | SID104180501 | 0.35 | 0.41 | – | – | – |
| Mov10 | SID104186804 | 0.16 | 0.33 | – | – | – |
| Jon25Biii | SID104182907 | 0.15 | 0.16 | – | – | – |
| Tsen34 | SID104202289 | 0.15 | 0.15 | – | – | – |
| Ada1-1 + Ada1-2 | SID104181012 | 0.97 | 0.73 | – | – | – |
| Ada1-1 + Ada1-2 | SID104181014 | 0.59 | 0.58 | – | – | – |
| mrj | SID104202010 | 1.29 | 0.45 | – | – | – |
| CG4593 | SID104198166 | 0.03 | 0.58 | – | – | – |
| cbc | SID104186749 | -0.17 | -0.15 | – | – | – |
| Obp58d | SID104183954 | -0.04 | 0.05 | – | – | – |
| CG7377 | SID104190622 | 0.3 | 0.31 | – | – | – |
| ATPsynepsilonL | SID104194340 | 0.09 | -0.66 | – | – | – |
| Abcd3 | SID104199280 | -0.33 | 0.48 | – | – | – |
| CG18268 + CG3014 | SID104195111 | 0.13 | 0.19 | – | – | – |
| CG32984 | SID104201306 | -0.64 | -0.33 | – | – | – |
| CG42531 | SID104185110 | -0.4 | 0.27 | – | – | – |
| Tmtc2 | SID104180064 | 0.17 | 0.49 | – | – | – |
| Vps45 | SID104196190 | 0.2 | 0.57 | – | – | – |
| FipoQ | SID104195205 | 0.51 | 0.59 | – | – | – |
| Pdxk | SID104190211 | 0.35 | 0.22 | – | – | – |
| CG8008 | SID104186845 | 0.16 | 0.36 | – | – | – |
| Cyt-c1 | SID104190239 | 0.13 | 0.11 | – | – | – |
| fzy | SID104183326 | -4.19 | -3.93 | – | – | reduced secretion |
| CG5539 | SID104184302 | 0.49 | 0.42 | – | – | – |
| TTLL6B | SID104195724 | -0.13 | -0.52 | – | – | – |
| CG15478 | SID104197849 | 0.09 | 0.31 | – | – | – |
| CG14000 + bchs | SID104182125 | 0.21 | 0.07 | – | – | – |
| CG14717 | SID104194732 | 0.17 | 0.35 | – | – | – |
| CG32829 | SID104180753 | 0.34 | 0 | -1.86 | 0.23 | – |
| CG32829 | SID104202164 | -0.26 | -0.08 | – | – | – |
| eIF5 | SID104199957 | -1.18 | -1.22 | – | – | – |
| Ugt301D1 | SID104181813 | 0.26 | 0.33 | – | – | – |
| CG9570 | SID104200479 | -0.21 | 0.32 | – | – | – |
| Ctr1B + Poxm | SID104196037 | 0.06 | -0.09 | – | – | – |
| Cdk5alpha | SID104183082 | -0.54 | -0.34 | – | – | – |

Laid out differently: entries from further up
CG18268 + CG3014 [SID104195111]: z-score, replicate 1 = 0.13; z-score, replicate 2 = 0.19
CG32984 [SID104201306]: z-score, replicate 1 = -0.64; z-score, replicate 2 = -0.33
CG42531 [SID104185110]: z-score, replicate 1 = -0.4; z-score, replicate 2 = 0.27
Tmtc2 [SID104180064]: z-score, replicate 1 = 0.17; z-score, replicate 2 = 0.49
Vps45 [SID104196190]: z-score, replicate 1 = 0.2; z-score, replicate 2 = 0.57
FipoQ [SID104195205]: z-score, replicate 1 = 0.51; z-score, replicate 2 = 0.59
Pdxk [SID104190211]: z-score, replicate 1 = 0.35; z-score, replicate 2 = 0.22
CG8008 [SID104186845]: z-score, replicate 1 = 0.16; z-score, replicate 2 = 0.36
Cyt-c1 [SID104190239]: z-score, replicate 1 = 0.13; z-score, replicate 2 = 0.11
